# Measured values from patent US20250170263A1.
# Results are given in words; binding and its absence hold for the method and conditions named.
# Key:
# [1] = target: wt EGFR overexpressed on the surface of A431 (A-431, human epidermoid carcinoma) cells (human) (UniProt P00533); experiment: FACS on A431 cells
# [2] = target: wt EGFR overexpressed on the surface of A431 (A-431, human epidermoid carcinoma) cells (human) (UniProt P00533); experiment: condition: about 1000 nM (last point, between the 100 and 10000 ticks of the log axis); FACS on A-431 cells, 1 h at 4 C, AlexaFluor 488 secondary antibody, geometric mean fluorescence
binder,measurement,setting,value
"MSL109 hIgG (antibody, V domains shown) VH: EEQVLESGGGLVKPGGSLRLSCAASGFTFSPYSVFWVRQAPGKGLEWVSSINSDSTYKYYADSVKGRFTISRDNAENSIFLQMNSLRAEDTAVYYCARDRSYYAFSSGSLSDYYYGLDVWGQGTTVIVSS VL: DIVMTQSPLSLSVTPGEPASISCRSSQSLLHTNGYNYLDWYVQKPGQSPQLLIYLASNRASGVPDRFSGSGSGTDFTLKISRVETEDVGVYYCMQALQIPRTFGQGTKVEIKR",binding,[1],no binding
same,binding,[2],no binding
